Measurements published in PMC5963871.
No constants are given. Whether binding was seen depends on the method and setting. In cells and extracts the contact can be indirect. Here binding means that the protein was enriched with, or labelled near, the bait; the list need not be complete.

Protein sequences, listed by entry. Tags and fused reporters are not part of them.
UniProt Q9VW15: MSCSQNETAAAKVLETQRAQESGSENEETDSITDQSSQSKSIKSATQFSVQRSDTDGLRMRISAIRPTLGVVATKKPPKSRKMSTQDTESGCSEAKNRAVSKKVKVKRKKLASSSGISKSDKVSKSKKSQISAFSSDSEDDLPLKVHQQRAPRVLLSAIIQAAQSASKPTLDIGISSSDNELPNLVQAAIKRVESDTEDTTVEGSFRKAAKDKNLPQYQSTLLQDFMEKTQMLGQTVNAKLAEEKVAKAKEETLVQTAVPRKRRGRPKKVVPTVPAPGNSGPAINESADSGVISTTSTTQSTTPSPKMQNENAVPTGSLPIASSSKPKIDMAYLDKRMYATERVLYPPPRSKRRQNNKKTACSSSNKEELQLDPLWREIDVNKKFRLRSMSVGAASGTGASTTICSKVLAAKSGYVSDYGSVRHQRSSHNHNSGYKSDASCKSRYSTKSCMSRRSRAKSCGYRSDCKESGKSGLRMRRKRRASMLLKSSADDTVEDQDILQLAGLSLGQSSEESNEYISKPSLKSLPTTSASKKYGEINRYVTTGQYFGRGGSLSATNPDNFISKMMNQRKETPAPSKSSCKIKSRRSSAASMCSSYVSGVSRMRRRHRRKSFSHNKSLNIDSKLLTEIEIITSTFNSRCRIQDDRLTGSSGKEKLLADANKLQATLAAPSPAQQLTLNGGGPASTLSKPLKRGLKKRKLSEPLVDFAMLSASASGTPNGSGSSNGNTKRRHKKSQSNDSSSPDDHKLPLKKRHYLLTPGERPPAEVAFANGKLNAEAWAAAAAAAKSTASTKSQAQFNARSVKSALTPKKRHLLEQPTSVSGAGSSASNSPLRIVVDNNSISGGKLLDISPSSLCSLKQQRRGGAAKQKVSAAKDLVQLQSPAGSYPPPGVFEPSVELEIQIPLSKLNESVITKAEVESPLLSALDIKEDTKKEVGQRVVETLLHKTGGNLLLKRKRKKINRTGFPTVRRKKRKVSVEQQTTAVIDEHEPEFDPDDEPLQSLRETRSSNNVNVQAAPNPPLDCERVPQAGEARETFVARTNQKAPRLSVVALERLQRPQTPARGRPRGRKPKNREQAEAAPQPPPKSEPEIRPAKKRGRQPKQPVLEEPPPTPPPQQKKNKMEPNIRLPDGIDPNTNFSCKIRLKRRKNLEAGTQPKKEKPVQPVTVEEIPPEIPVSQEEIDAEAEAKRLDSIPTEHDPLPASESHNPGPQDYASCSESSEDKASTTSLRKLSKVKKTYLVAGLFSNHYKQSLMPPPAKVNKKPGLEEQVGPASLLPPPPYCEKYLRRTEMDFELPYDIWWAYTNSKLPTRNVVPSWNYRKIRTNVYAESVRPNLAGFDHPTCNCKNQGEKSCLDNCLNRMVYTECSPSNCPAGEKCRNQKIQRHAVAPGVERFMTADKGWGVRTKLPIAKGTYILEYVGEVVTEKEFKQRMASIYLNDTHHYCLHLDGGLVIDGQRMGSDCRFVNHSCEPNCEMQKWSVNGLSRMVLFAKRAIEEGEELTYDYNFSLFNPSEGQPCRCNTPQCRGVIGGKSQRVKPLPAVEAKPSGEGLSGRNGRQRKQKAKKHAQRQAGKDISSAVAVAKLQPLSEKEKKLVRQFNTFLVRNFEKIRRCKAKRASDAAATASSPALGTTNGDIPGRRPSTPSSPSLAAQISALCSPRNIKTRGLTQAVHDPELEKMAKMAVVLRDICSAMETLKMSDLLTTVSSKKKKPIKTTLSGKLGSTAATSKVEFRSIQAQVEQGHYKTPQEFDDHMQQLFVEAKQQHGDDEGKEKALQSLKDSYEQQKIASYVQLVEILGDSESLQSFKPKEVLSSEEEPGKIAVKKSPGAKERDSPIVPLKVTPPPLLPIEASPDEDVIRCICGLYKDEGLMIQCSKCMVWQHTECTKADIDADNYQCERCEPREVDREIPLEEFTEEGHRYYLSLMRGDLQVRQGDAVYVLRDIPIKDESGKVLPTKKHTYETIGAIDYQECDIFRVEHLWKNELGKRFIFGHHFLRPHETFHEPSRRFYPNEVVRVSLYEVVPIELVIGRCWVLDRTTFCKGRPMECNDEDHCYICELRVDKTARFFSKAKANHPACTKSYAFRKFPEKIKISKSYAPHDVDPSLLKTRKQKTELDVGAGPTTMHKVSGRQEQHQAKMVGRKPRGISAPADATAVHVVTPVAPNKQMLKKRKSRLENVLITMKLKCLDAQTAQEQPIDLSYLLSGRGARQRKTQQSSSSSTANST
UniProt Q24572: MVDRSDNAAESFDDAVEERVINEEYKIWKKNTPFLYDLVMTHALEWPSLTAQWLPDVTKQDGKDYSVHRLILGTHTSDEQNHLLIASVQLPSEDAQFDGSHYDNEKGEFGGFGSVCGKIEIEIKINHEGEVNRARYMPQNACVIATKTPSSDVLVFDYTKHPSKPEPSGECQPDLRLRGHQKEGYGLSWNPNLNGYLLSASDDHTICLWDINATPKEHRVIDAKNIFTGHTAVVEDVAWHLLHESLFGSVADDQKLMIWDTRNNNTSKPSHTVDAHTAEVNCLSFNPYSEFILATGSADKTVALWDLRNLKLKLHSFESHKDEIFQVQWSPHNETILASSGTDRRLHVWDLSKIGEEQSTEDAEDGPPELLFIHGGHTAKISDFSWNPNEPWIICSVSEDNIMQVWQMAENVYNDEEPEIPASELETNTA

Legend:
NTAP-Ash1 (Drosophila) = NTAP-Ash1 (Drosophila) (UniProt Q9VW15); assay: affinity purification with mass spectrometry; tandem affinity purification (TAP) of NTAP-Ash1 or Ash1-CTAP from Drosophila embryonic nuclear extracts; eluates from calmodulin beads separated on 4-12% gels; iBAQ quantification against mock TAP from wild type
Ash1-CTAP (Drosophila) = Ash1-CTAP (Drosophila) (UniProt Q9VW15); assay: as above

Caf1-55 (endogenous, Drosophila embryos) (from UniProt Q24572 1-430)
binding (NTAP-Ash1 (Drosophila)): binds
binding (Ash1-CTAP (Drosophila)): binds
